Source: PubChem BioAssay AID2685 (National Center for Advancing Translational Sciences (NCATS), 2010)
The other results are listed elsewhere or left out. The main result of the screen is listed elsewhere. These columns were measured beside it and carry no call. Most of these compounds were active or inconclusive in the main read-out, so they are no random draw. The note in brackets gives the kind of curve behind each potency; many fits are weak.

Assay: qHTS Assay for Lipid Storage Modulators in Drosophila S3 Cells;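 for cell number change: cells counted by Cell Tracker Red CMTPX staining in the red channel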
Conditions: BODIPY lipid droplet fluorescence, 18-24 h; for cell number change: measured here: cell count max response, cells fed with added oleic acid
Outline: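 Laser-scanning cytometry quantifies lipid droplet accumulation (500–530 nm total intensity; droplet/cell object ratio) in oleic acid-fed (400 uM added) Drosophila S3 cells treated with a concentration series. 20 uM Triacsin C defined 100% inhibition.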

[1] = measured here: cell number channel AC50, cells fed with added oleic acid
[2] = measured here: lipid fluorescence (Fed channel) AC50, cells fed with added oleic acid

SMILES | cell number change | AC50 [1] | AC50 [2]
CCN1CCN(CCNC(=O)c2ccc3c(c2)N(Cc2ccc(F)cc2)C(=O)/C(=C/c2ccccc2)S3)CC1 | -55.8% | 25.9 µM [falling, partial curve] | 23.1 µM [falling, partial curve, poor fit]
C/C(=N\NC(=O)OC(C)(C)C)c1ccc(-n2ccnc2)cc1 | -18.8% | – | –
Cc1noc(NS(=O)(=O)c2ccc(NC(=O)CSc3nnc(-c4ccccc4)n3C3CCCCC3)cc2)c1C | 14.2% | – | 0.0651 µM [falling, partial curve, poor fit]
COc1ccc(/C=N\NC(=O)c2c(C)nc3ccc(Br)cn23)cc1 | 8.34% | – | –
CC(=O)c1cnc(-c2ccccc2Cl)s1 | 20.4% | – | –
COc1ccc(/C=N/NS(=O)(=O)c2ccc(NC(C)=O)cc2)cc1 | 14.5% | – | 18.4 µM [rising, partial curve]
CCOc1ccc(CN(C)C(=O)CNC(=O)c2ccc(Br)o2)cc1OC | 7.92% | – | –
CCC(C)NC(=O)CN(C)S(=O)(=O)c1ccc2c(c1)c(=O)n(C)c(=O)n2C (stereo unspecified) | -7.87% | – | 14.6 µM [rising, single point]
CCOC(=O)C1=C(N)Oc2ccc3ccccc3c2C1c1ccc(O)cc1 (stereo unspecified) | -50.5% | 23.1 µM [falling, partial curve] | 0.731 µM [falling, full curve, poor fit]
CCCCC(C(=O)NC(=O)NCc1ccccc1)N1C(=O)c2ccccc2C1=O (stereo unspecified) | 4.78% | – | –
COc1cc(NC(=O)c2cc3c(=O)n(C)c4ccccc4c3n2C)cc(OC)c1OC | 46.3% | 0.461 µM [rising, full curve] | 1.46 µM [rising, partial curve]
C#CCOCCOCCOCCNc1nc(N2CCN(C(=O)CCCCCCCCCCNC(=O)Cn3cc(CCCCCN)nn3)CC2)nc(N2CCN(C(=O)CCCCCCCCCCNC(=O)[C@@H](CCSC)n3cc(CCO)nn3)CC2)n1 | -27.4% | – | 29.1 µM [falling, single point]
CC(C)OC(=O)c1ccc(NC(=O)CSc2nc3ncccc3[nH]2)cc1 | -56.1% | 9.2 µM [falling, partial curve] | 11.6 µM [falling, partial curve]
Cc1ccnc(-n2sc3ccccc3c2=O)n1 | -74.6% | 20.6 µM [falling, single point] | 18.4 µM [falling, single point]
CCCCCCc1ccc(O)cc1O | -46.1% | 13 µM [falling, partial curve] | 10.3 µM [falling, partial curve]
CC(=O)Nc1cccc(NC(=O)C2CC(=O)N(C3CCCCC3)C2)c1 (stereo unspecified) | 11.8% | – | 13 µM [rising, partial curve, poor fit]
Cc1ccc(NC(=O)Cn2ncc(Cl)c(Cl)c2=O)cc1S(=O)(=O)N1CCCCC1 | -5.35% | – | 0.326 µM [falling, full curve]
O=[N+]([O-])c1ccc(S(=O)(=O)Nc2ccccn2)cc1 | -8.39% | – | 0.58 µM [falling, single point]
COc1ccc(CNC(=O)CCCn2nc(C)c3c(C)n(-c4ccccc4)nc3c2=O)cc1 | 43% | 29.1 µM [rising, single point] | –
O=C(O)C1CC(=O)N(c2ccc(OCc3ccccc3Cl)cc2)C1 (stereo unspecified) | 5.75% | – | 0.0731 µM [falling, full curve, poor fit]
CN(C)CCn1c(SCc2ccccc2C#N)nc2c(sc3ccccc32)c1=O | – | 6.51 µM [rising, single point] | –

SMILES | cell number change | AC50 [1] | AC50 [2]
CCN(CC)S(=O)(=O)c1ccc(N2CCCC2)c(NS(=O)(=O)c2cccs2)c1 | -66.4% | 5.8 µM [falling, full curve] | 1.64 µM [falling, full curve]
CCN(CC(=O)Nc1cc(Cl)ccc1Cl)C(=O)c1ccc(-n2cccn2)cc1 | -9.87% | – | 8.2 µM [rising, partial curve]
CCOc1ccc(C(=O)NC(=S)Nc2ccccc2N2CCC(C)CC2)cc1[N+](=O)[O-] | -3.04% | – | 20.6 µM [rising, single point]
CCCS(=O)(=O)N1CCCC(C(=O)NCCN(CC)c2ccccc2)C1 (stereo unspecified) | -35.9% | – | –
COc1cc(C)c(Br)cc1S(=O)(=O)NCc1ccncc1 | – | – | 0.112 µM [rising, full curve, poor fit]
Cc1cc(C)c2nc(SCCC#N)nc(C)c2c1 | 24.8% | 4.11 µM [rising, full curve, poor fit] | –
O=C(NCC(c1ccco1)N1CCc2ccccc21)c1ccccc1 (stereo unspecified) | -2.24% | – | 20.6 µM [rising, partial curve]
O=C(CCc1nnc2ccc(NCc3ccco3)nn12)Nc1cccc(F)c1 | -2.65% | – | 4.11 µM [falling, partial curve]
COc1ccc(O)c(-c2cc(-c3cccs3)[nH]n2)c1 | -14.2% | – | 29.1 µM [falling, single point]
O=C(c1cc2cc(Cl)ccc2[nH]1)N1CCN(c2ccc(F)cc2)CC1 | – | – | 4.11 µM [rising, partial curve, poor fit]
CCOC(=O)CSc1nc2c(c(=O)[nH]c(=O)n2C)n1Cc1ccccc1 | 9.89% | – | 0.291 µM [falling, partial curve, poor fit]
CCOc1ccc(N2Cc3ccccc3C2)cc1 | -11.9% | – | 6.51 µM [rising, single point]
COc1ccccc1C(=O)N1CCN=C1SCc1cccnc1 | 49.9% | 1.46 µM [rising, full curve] | –
Cc1cc(Nc2ccc(Cl)cc2)nc(NCc2ccccc2)n1 | -89.7% | 29.1 µM [falling, single point] | 29.1 µM [falling, partial curve, poor fit]
CCN(c1ccc(OC)cc1)S(=O)(=O)c1nnc(NC(=O)COc2ccccc2)s1 | -3.63% | – | 4.11 µM [falling, single point]
O=C(CN1C(=O)C2CC=CCC2C1=O)Nc1ccc(-c2nnc3n2CCCCC3)cc1 (stereo unspecified) | -9.58% | – | –
COC(=O)Cn1cnc2c(C#N)c3n(c2c1=O)CCCCC3 | 99.4% | 16.4 µM [rising, partial curve] | –
CC1CCCCN1C(=O)c1ccc(C(=O)N2CCCCC2C)cc1 (stereo unspecified) | 1.56% | – | –
O=C(c1cccn(Cc2ccc(C(F)(F)F)cc2)c1=O)N1CCOCC1 | – | 0.82 µM [falling, full curve, poor fit] | –
Cc1ccc(N(C(=O)c2csnn2)C(C(=O)NCc2ccccc2)c2cccnc2)cc1 (stereo unspecified) | 17.9% | 0.092 µM [rising, full curve, poor fit] | –
COCCn1c(C)cc(C(=O)COC(=O)c2cncc(Br)c2)c1C | 29% | – | –

Entries above that have a halogen, in the order listed:
SMILES | cell number change | AC50 [1] | AC50 [2]
CCN1CCN(CCNC(=O)c2ccc3c(c2)N(Cc2ccc(F)cc2)C(=O)/C(=C/c2ccccc2)S3)CC1 | -55.8% | 25.9 µM [falling, partial curve] | 23.1 µM [falling, partial curve, poor fit]
COc1ccc(/C=N\NC(=O)c2c(C)nc3ccc(Br)cn23)cc1 | 8.34% | – | –
CC(=O)c1cnc(-c2ccccc2Cl)s1 | 20.4% | – | –
CCOc1ccc(CN(C)C(=O)CNC(=O)c2ccc(Br)o2)cc1OC | 7.92% | – | –
Cc1ccc(NC(=O)Cn2ncc(Cl)c(Cl)c2=O)cc1S(=O)(=O)N1CCCCC1 | -5.35% | – | 0.326 µM [falling, full curve]
O=C(O)C1CC(=O)N(c2ccc(OCc3ccccc3Cl)cc2)C1 (stereo unspecified) | 5.75% | – | 0.0731 µM [falling, full curve, poor fit]
CCN(CC(=O)Nc1cc(Cl)ccc1Cl)C(=O)c1ccc(-n2cccn2)cc1 | -9.87% | – | 8.2 µM [rising, partial curve]
COc1cc(C)c(Br)cc1S(=O)(=O)NCc1ccncc1 | – | – | 0.112 µM [rising, full curve, poor fit]
O=C(CCc1nnc2ccc(NCc3ccco3)nn12)Nc1cccc(F)c1 | -2.65% | – | 4.11 µM [falling, partial curve]
O=C(c1cc2cc(Cl)ccc2[nH]1)N1CCN(c2ccc(F)cc2)CC1 | – | – | 4.11 µM [rising, partial curve, poor fit]
Cc1cc(Nc2ccc(Cl)cc2)nc(NCc2ccccc2)n1 | -89.7% | 29.1 µM [falling, single point] | 29.1 µM [falling, partial curve, poor fit]
O=C(c1cccn(Cc2ccc(C(F)(F)F)cc2)c1=O)N1CCOCC1 | – | 0.82 µM [falling, full curve, poor fit] | –
COCCn1c(C)cc(C(=O)COC(=O)c2cncc(Br)c2)c1C | 29% | – | –

More records.

SMILES | cell number change | AC50 [1] | AC50 [2]
CCOC(=O)c1sc(NC(=S)NC(=O)c2ccccc2)nc1C | -2.4% | – | 0.731 µM [rising, full curve]
COc1ccc(/C=C/S(=O)(=O)NCc2ccccc2)cc1OC | -2.35% | – | –
Cc1ccc(CO/N=C\Cc2snc(Sc3ncc(C(F)(F)F)cc3Cl)c2C#N)cc1 | – | – | 16.4 µM [falling, partial curve]
CCC(C)(C)n1nnnc1C(c1ccccn1)N1CCOCC1 (stereo unspecified) | -53.1% | 16.4 µM [falling, single point] | 5.17 µM [falling, full curve]
CCCCNC(=O)CCN1N=C(c2ccccc2)CCC1=O | -4.57% | – | 0.651 µM [rising, single point]
COc1ccc(NC(=O)CSc2nc(N)c3cc4c(nc3n2)CCCC4)cc1 | 14.2% | 0.13 µM [falling, full curve, poor fit] | –
CCCC(=O)NC1C2CC3CC(C2)CC1C3 (stereo unspecified) | -2.84% | – | 0.0517 µM [falling, full curve, poor fit]
Cc1cc(NC(=O)CSc2nnc(-c3ccc(Br)o3)n2Cc2ccccc2)no1 | -18.6% | – | 0.058 µM [rising, full curve, poor fit]
CCOc1ccc(NC(=O)CN(C)C(=O)c2ccncc2)cc1OCC | -5.41% | – | 6.51 µM [falling, single point]
Cc1cccc(-c2nc3ccccc3c3nncn23)c1 | 4.58% | 0.0731 µM [rising, full curve, poor fit] | –
COC(=O)CC1=NN(c2ccccc2)C(=O)C1 | -40.9% | 5.17 µM [falling, partial curve] | 3.66 µM [falling, full curve]
Cc1ccccc1NC(=O)COC(=O)CC1CCCC1 | 24.8% | 4.61 µM [falling, single point] | –
CCC(C)CCN1C(N(C)C)=NC[C@@H]1C (stereo partly specified) | 14.6% | – | 6.51 µM [rising, partial curve, poor fit]
CCc1ccc(C(c2c(C)nn(-c3ccccc3)c2N)c2c(C)nn(-c3ccccc3)c2N)cc1 | 26.1% | – | –
CCOc1ccc(NC(=S)Nc2cc(C)[nH]n2)cc1 | 30.5% | 0.291 µM [rising, full curve] | 4.11 µM [falling, single point]
O=C(c1cccc2ccccc12)C1CCCN(C(=O)c2ccc(N3CCOCC3)cc2)C1 (stereo unspecified) | 13.4% | – | 0.651 µM [rising, single point]
COc1ccccc1CN1C(=O)C2CC=CCC2C1=O (stereo unspecified) | -19.8% | – | –
Cc1ccc(/C=C(\C#N)c2nn(-c3ccccc3)c(N)c2C#N)cc1 | 0.53% | – | 0.00517 µM [rising, full curve, poor fit]
COc1ccc(C(=O)NNC(=O)C(=O)Nc2cccc3ccccc23)cc1 | 76.1% | 25.9 µM [rising, partial curve] | –

Retrieved by structure from the list above (2):
SMILES | cell number change | AC50 [1] | AC50 [2]
COc1ccc(C(=O)NNC(=O)C(=O)Nc2cccc3ccccc23)cc1 | 76.1% | 25.9 µM [rising, partial curve] | –
Cc1cccc(-c2nc3ccccc3c3nncn23)c1 | 4.58% | 0.0731 µM [rising, full curve, poor fit] | –
